The supplement of paper PMC10735217
The list shows a part of the results. This data set is noisy: repeats of one test often differ as much as different tests do.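 In a drug-repurposing library screen, luminescence reads luciferase driven by eight TEAD-binding elements, stably integrated into human kidney-derived cells. Compounds scoring over five robust Z scores above the plate mean are called hits.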

System: HEK293A TEAD-LUC reporter
Experiment: TEAD-luciferase reporter activity (YAP activation), robust Z score vs plate; higher = stronger YAP/TEAD activation
Conditions: 24 h

Compound: Cc1ccc(CCN2CCCCC23Cc2ccccc2CN(C(=O)CCCC(=O)O)C3)cc1 (configuration not stated)
- TEAD-luciferase reporter activity (compound concentration: 200 nM): inactive: 2
- TEAD-luciferase reporter activity (compound concentration: 10 uM): inactive: 1.09

Compound: CCCc1ncc(C[n+]2ccccc2C)c(N)n1 [Amprolium]
- TEAD-luciferase reporter activity (compound concentration: 2 uM): inactive: -0.00481

Compound: CCCc1ncc(C[n+]2ccccc2C)c(N)n1
- TEAD-luciferase reporter activity (compound concentration: 200 nM): inactive: 1.42
- TEAD-luciferase reporter activity (compound concentration: 10 uM): inactive: -0.607

Compound: CC1CC[C@@]2(OC1)OC1CC3C4CC[C@H]5C[C@@H](OC6OC(CO)C(OC7OC(CO)C(O)C(O)C7O)C(O)C6O)CC[C@]5(C)C4C(=O)[C@@H](O)[C@]3(C)C1[C@@H]2C (some centres not stated)
- TEAD-luciferase reporter activity (compound concentration: 200 nM): inactive: 0.0551
- TEAD-luciferase reporter activity (compound concentration: 2 uM): inactive: -0.432
- TEAD-luciferase reporter activity (compound concentration: 10 uM): inactive: 2.01

Compound: CC1CC[C@@]2(OC1)O[C@H]1CC3[C@@H]4CC[C@H]5C[C@H](O[C@@H]6O[C@H](CO)[C@H](O[C@@H]7O[C@H](CO)[C@@H](O)[C@H](O)[C@H]7O)[C@H](O)[C@H]6O)CC[C@]5(C)C4CC[C@]3(C)[C@H]1[C@@H]2C (some centres not stated) [Tiqueside]
- TEAD-luciferase reporter activity (compound concentration: 200 nM): inactive: 0.133
- TEAD-luciferase reporter activity (compound concentration: 2 uM): inactive: -0.957
- TEAD-luciferase reporter activity (compound concentration: 10 uM): inactive: -0.761

Compound: N[C@@H](CSCC(=O)N1CC([N+](=O)[O-])([N+](=O)[O-])C1)C(=O)NCC(=O)O
- TEAD-luciferase reporter activity (compound concentration: 200 nM): inactive: -0.507
- TEAD-luciferase reporter activity (compound concentration: 2 uM): inactive: 0.14
- TEAD-luciferase reporter activity (compound concentration: 10 uM): inactive: -0.299

Compound: O=C(NCCN1CCC(n2c(O)nc3cc(Cl)ccc32)CC1)c1ccc(F)cc1 [Halopemide]
- TEAD-luciferase reporter activity (compound concentration: 200 nM): inactive: -1.97
- TEAD-luciferase reporter activity (compound concentration: 2 uM): inactive: -1.43
- TEAD-luciferase reporter activity (compound concentration: 10 uM): inactive: -1.45

Compound: NC(=O)[C@@H]1CCCN1C(=O)[C@H](Cc1c[nH]cn1)NC(=O)c1cc(=O)[nH]c(=O)[nH]1 [orotirelin]
- TEAD-luciferase reporter activity (compound concentration: 200 nM): inactive: 1.76
- TEAD-luciferase reporter activity (compound concentration: 2 uM): inactive: 1.36
- TEAD-luciferase reporter activity (compound concentration: 10 uM): inactive: -0.726

Compound: COc1ccc(CNC(=O)C2CCN(C(=O)c3ccc(-c4ccccc4OC)cc3)CC2)cc1
- TEAD-luciferase reporter activity (compound concentration: 200 nM): inactive: -1.71
- TEAD-luciferase reporter activity (compound concentration: 10 uM): inactive: -1.98

Compound: CCCCN(Cc1ccccc1)Cc1ccco1
- TEAD-luciferase reporter activity (compound concentration: 200 nM): inactive: -1.89
- TEAD-luciferase reporter activity (compound concentration: 2 uM): inactive: 1.84
- TEAD-luciferase reporter activity (compound concentration: 10 uM): inactive: 1.08

Compound: Cc1onc(NS(=O)(=O)c2ccc(N)cc2)c1C [Sulfatroxazole]
- TEAD-luciferase reporter activity (compound concentration: 200 nM): inactive: -0.718
- TEAD-luciferase reporter activity (compound concentration: 2 uM): inactive: 2.51
- TEAD-luciferase reporter activity (compound concentration: 10 uM): inactive: -1.6

Compound: C[C@@H]1O[C@@H](O[C@H]2C(=O)c3c(O)cc(O)cc3O[C@@H]2c2ccc(O)c(O)c2)[C@H](O)[C@H](O)[C@H]1O [Astilbin]
- TEAD-luciferase reporter activity (compound concentration: 200 nM): inactive: -1.13
- TEAD-luciferase reporter activity (compound concentration: 2 uM): inactive: -0.874
- TEAD-luciferase reporter activity (compound concentration: 10 uM): inactive: -0.0397

Compound: CCCCOc1cc(C(N)=O)ccc1OC
- TEAD-luciferase reporter activity (compound concentration: 200 nM): inactive: -1.31
- TEAD-luciferase reporter activity (compound concentration: 2 uM): inactive: 0.0885
- TEAD-luciferase reporter activity (compound concentration: 10 uM): inactive: 1.52

Compound: CN(C)c1cc(NC(=O)CNC(C)(C)C)c(O)c2c1C[C@H]1C[C@H]3[C@H](N(C)C)C(O)=C(C(N)=O)C(=O)[C@@]3(O)C(O)=C1C2=O [Tigecycline]
- TEAD-luciferase reporter activity (compound concentration: 200 nM): inactive: -1.9
- TEAD-luciferase reporter activity (compound concentration: 2 uM): inactive: -1.03
- TEAD-luciferase reporter activity (compound concentration: 10 uM): inactive: 2.32
